{
  "sequences": {"note": "Protein sequences, listed by entry. Tags and fused reporters are not part of them. Lines headed by an entry give the natural chain unless they say otherwise; changes in a name come on top.", "UniProt C7C422": "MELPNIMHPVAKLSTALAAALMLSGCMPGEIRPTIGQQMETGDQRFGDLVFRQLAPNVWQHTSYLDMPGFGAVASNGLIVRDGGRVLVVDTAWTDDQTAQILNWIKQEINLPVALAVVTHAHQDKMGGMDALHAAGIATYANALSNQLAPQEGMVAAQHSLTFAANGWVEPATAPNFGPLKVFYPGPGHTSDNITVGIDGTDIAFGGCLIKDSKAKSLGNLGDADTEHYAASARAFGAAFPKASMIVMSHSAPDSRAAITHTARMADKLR"},
  "source": "PubChem BioAssay AID1794845",
  "about": "(National Center for Advancing Translational Sciences (NCATS), 2023)",
  "note": "In all, about 6,900 compounds went through this assay and fewer than 10 were called active. The call rests on the fitted dose curve; in most records, active means well fitted curve in the direction sought with a large enough effect; inconclusive means small, poorly fitted or top-dose-only effect, or another doubt; inactive means no such curve, though single readings can be large or run the other way. Some of the results follow.",
  "data": [
    {"molecular_target": "Metallo-beta-lactamase type 2 (Klebsiella pneumoniae) (UniProt C7C422)", "test": "qHTS to identify inhibitors of the New Delhi Metallo-beta-lactamase (NDM): primary screen against the NCATS Gemini Collection; further: % of control where 0% means no effect", "settings": "NDM-1 enzyme, meropenem hydrolysis, absorbance 300 nm; at 38.4 µM (top of the series) unless noted", "procedure,_shortened": "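NDM-1 at 2 nM final in 50 mM HEPES pH 7.0, 1 uM ZnSO4, 0.01% Tween20, preincubated >30 min with compound. Meropenem 50 uM final added; absorbance at 300 nm after 30 min.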", "values": [
      {"smiles": "O=C(Nc1cccc(Cl)c1)N1CC(n2cc(COc3ccccc3)nn2)C1", "activity % (negative = inhibition)": "inactive: -0.641%"},
      {"smiles": "O=C(Nc1ccc(F)cc1)c1ccc2cc[nH]c2n1", "activity % (negative = inhibition)": "inactive: 20.9% [at 57.5 µM]"},
      {"smiles": "C[C@@H](NS(=O)(=O)c1ccc(Cl)cc1)c1onc(-c2ccc(F)cc2)c1C(=O)O", "activity % (negative = inhibition)": "inactive: 21.9% [at 57.5 µM]"},
      {"smiles": "O=C(CCCc1c[nH]c2ccccc12)N1CCc2nc3cc[nH]n3c(=O)c2C1", "activity % (negative = inhibition)": "inactive: 5.38%"},
      {"smiles": "Cn1cnnc1-c1nn(C)c2c1CNCC2", "activity % (negative = inhibition)": "inactive: 3.66%"},
      {"smiles": "O=C(CN1CC2CC(C1)[C@H]1CCCC(=O)N1C2)N1CCN(c2ccc(Cl)cc2)CC1", "note": "(some centres not stated)", "activity % (negative = inhibition)": "inactive: -6.23%"},
      {"smiles": "CCN1C(=O)C2CC3(CCN(C(=O)c4cc(C)n(CCOC)c4C)CC3)CN2C1=O", "note": "(configuration not stated)", "activity % (negative = inhibition)": "inactive: 9.95%"},
      {"smiles": "c1cc2c(cc1CN1CCOCC1)CNCCO2", "activity % (negative = inhibition)": "inactive: -2.06%"},
      {"smiles": "CC(C)NC(=O)[C@@H]1C[C@@H](N)CN1C(=O)c1cccc2ccccc12", "activity % (negative = inhibition)": "inactive: 2.07%"},
      {"smiles": "O=C1CCN(C(=O)c2cc3ccccc3[nH]2)CCCCCCN1", "activity % (negative = inhibition)": "inactive: 24%"},
      {"smiles": "CN(C1CCCCC1)S(=O)(=O)C1CCS(=O)(=O)C1", "note": "(configuration not stated)", "activity % (negative = inhibition)": "inactive: -0.408%"},
      {"smiles": "O=C(N[C@@H]1CN(C(=O)c2nccc3ccccc23)C[C@H]1CO)c1ccccc1", "activity % (negative = inhibition)": "inactive: -0.936%"},
      {"smiles": "C[S+](=O)([O-])NCCNC(=O)c1cccc(-c2ccc(C(F)(F)F)cc2)c1", "activity % (negative = inhibition)": "inactive: -5.03%"},
      {"smiles": "Cc1cccc(OCC(=O)c2ccc3c(c2)N(C(C)C(=O)N2CCOCC2)C(=O)CO3)c1C", "note": "(configuration not stated)", "activity % (negative = inhibition)": "inactive: 8.23%"},
      {"smiles": "COc1cc(CN2CCN(c3ccc(C#N)cn3)CC2CCO)cc(OC)c1", "note": "(configuration not stated)", "activity % (negative = inhibition)": "inactive: 19.5%"},
      {"smiles": "O=C(c1ccccc1Cl)N1CCCC(C(=O)N2CCC(c3ccccc3)CC2)C1", "note": "(configuration not stated)", "activity % (negative = inhibition)": "inactive: 10%"},
      {"smiles": "CCO[C@H]1CN(C(=O)Cc2ccccc2OCc2ccccc2)C[C@@H]1O", "activity % (negative = inhibition)": "inactive: 72.3%"},
      {"smiles": "CNC(=O)[C@H]1C[C@]2(CCCCNC2=O)N(C(=O)c2cccc(C#N)c2)[C@H]1c1ccco1", "activity % (negative = inhibition)": "inactive: 1.12%"},
      {"smiles": "COc1ccc(N2CC3CCC(C2)N3C(=O)NC(C)C)cc1", "activity % (negative = inhibition)": "inactive: 4.56%"},
      {"smiles": "CNC(=O)c1cc(C)nc2onc(C3CCN(C(=O)c4ccccc4Cl)C3)c12", "note": "(configuration not stated)", "activity % (negative = inhibition)": "inactive: 3.46%"},
      {"smiles": "CCOCC(O)Cn1cnc(-c2ccccc2)c1-c1cccc(OC)c1F", "note": "(configuration not stated)", "activity % (negative = inhibition)": "inactive: -10.4%"},
      {"smiles": "CC(c1cccs1)N(C)Cc1ccncc1", "note": "(configuration not stated)", "activity % (negative = inhibition)": "inactive: 0.677% [at 57.5 µM]"},
      {"smiles": "Cc1ccc(OCCC2CCN(C(=O)c3cc(CN4CCOCC4)on3)C2)cc1", "note": "(configuration not stated)", "activity % (negative = inhibition)": "inactive: -0.73%"},
      {"smiles": "CCN1CCC(N2CCCC(N3CCN(c4cccc(Cl)c4)CC3)C2)CC1", "note": "(configuration not stated)", "activity % (negative = inhibition)": "inactive: 48.3%"},
      {"smiles": "CN(C)c1ccc2ncc(Nc3ccc(Cl)cn3)n2n1", "activity % (negative = inhibition)": "inactive: 1.88% [at 77.1 µM]"},
      {"smiles": "CCCNC(=O)N(C1CCOCC1)C1CCN(C(=O)c2nn(C)c3ccccc23)CC1", "activity % (negative = inhibition)": "inactive: 9.59%"},
      {"smiles": "O=C(c1n[nH]c2ccccc12)N1CC2CC(C1)[C@H]1CCCC(=O)N1C2", "note": "(some centres not stated)", "activity % (negative = inhibition)": "inactive: 17%"},
      {"smiles": "N#Cc1ccc(CN2CCC3(CNc4ccccc4[S+](=O)([O-])N3)C2)cc1", "note": "(configuration not stated)", "activity % (negative = inhibition)": "inactive: 3.22%"},
      {"smiles": "CCOC(=O)C(Cc1cccc(N2CCN([S+](=O)([O-])c3ccccc3Cl)CC2)c1)OC", "note": "(configuration not stated)", "activity % (negative = inhibition)": "inactive: 0.0904%"},
      {"smiles": "OC[C@@H]1O[C@H](CNCc2ccc(F)cc2)[C@H](N2CCCC2)[C@@H]1O", "activity % (negative = inhibition)": "inactive: 22.3% [at 57.5 µM]"},
      {"smiles": "CO[C@H]1CN(C2CCN(C(=O)C3CCN(C(C)=O)CC3)CC2)[C@H]1c1ccncc1", "activity % (negative = inhibition)": "inactive: 6.27%"},
      {"smiles": "CCOc1cccc(CN2CCc3c(c(CN(C(C)=O)c4ccccc4)nn3C)C2)c1O", "activity % (negative = inhibition)": "inactive: 1.47%"},
      {"smiles": "CC(=O)c1cc(C(=O)NCc2c(C)ncc3c2CCNC3)[nH]n1", "activity % (negative = inhibition)": "inactive: 1.33%"},
      {"smiles": "CNC(=O)[C@@H]1CN(C(=O)c2ccc(F)c(Cl)c2)C[C@H]1COC", "activity % (negative = inhibition)": "inactive: 6.05%"},
      {"smiles": "Fc1ccc(-c2cccc(CN3CC4CCC(C3)N4c3ccc(C(F)(F)F)cc3)c2)c(F)c1", "activity % (negative = inhibition)": "inactive: 5.91%"},
      {"smiles": "O=C(NCC1CN(C(=O)Cc2ccc(C(F)(F)F)cc2)CC12CN(c1ccccc1)C2)c1ccccc1", "note": "(configuration not stated)", "activity % (negative = inhibition)": "inactive: 0.75%"},
      {"smiles": "CCOc1ccc(C(=O)N2c3ccccc3CC2c2nc(CCOC)no2)cc1", "note": "(configuration not stated)", "activity % (negative = inhibition)": "inactive: -0.78%"},
      {"smiles": "O=C1CCCCC(CNC(=O)C2(c3ccccc3)CC2)N1", "note": "(configuration not stated)", "activity % (negative = inhibition)": "inactive: -0.899%"},
      {"smiles": "O=C(O)CCCC(=O)N[C@H]1CO[C@H]2[C@@H]1OC[C@@H]2Nc1nccc(-c2ccc3c(c2)OCO3)n1", "activity % (negative = inhibition)": "inactive: 4.02%"},
      {"smiles": "O=C(c1ccc(Cn2cccn2)o1)N1CCC2(CC1)[C@H](O)C[C@@H]2O", "activity % (negative = inhibition)": "inactive: -0.202%"},
      {"smiles": "CC(C)NC(=O)C[C@@H]1C[C@H]2O[C@H](CNC(=O)NCc3ccccc3)[C@@H](O)[C@H]2O1", "activity % (negative = inhibition)": "inactive: -5.17% [at 57.5 µM]"},
      {"smiles": "CCc1cccc(NC(=O)N2CC(c3nnc(C(C)C)o3)C3(CCOCC3)C2)c1", "note": "(configuration not stated)", "activity % (negative = inhibition)": "inactive: -0.479%"}
    ]}
  ]
}
